Our source for the binding values is PMC10995192 (Nature Communications, 2024).

Sequences of proteins named here, by UniProt entry; tags and fusion partners are left off. Residues count along the entry.
UniProt P34741, residues 19-144: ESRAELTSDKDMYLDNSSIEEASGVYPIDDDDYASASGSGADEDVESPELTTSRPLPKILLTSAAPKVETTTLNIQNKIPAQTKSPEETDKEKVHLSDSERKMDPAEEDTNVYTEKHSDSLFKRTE
UniProt Q9H7M9, residues 33-194: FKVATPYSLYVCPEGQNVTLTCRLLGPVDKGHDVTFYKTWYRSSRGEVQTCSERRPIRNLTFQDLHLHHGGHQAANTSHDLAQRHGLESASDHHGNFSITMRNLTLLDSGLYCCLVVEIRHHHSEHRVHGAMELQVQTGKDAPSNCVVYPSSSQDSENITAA

The target in this experiment is hSyndecan-2 (R&D Systems 2965-SD) (human) (UniProt P34741). Kind of experiment: ELISA; partner proteins coated at 5 µg/ml, biotinylated hVISTA-Fc serially diluted in 2% BSA in PBS at pH 7.4; HRP-streptavidin; both purified. (ELISA stands for enzyme-linked immunosorbent assay.)

Results are given in words; binding and its absence hold for the method and conditions named. Some entries that bind do so weakly or less than the wild type.

As to “C-terminal biotinylated hVISTA-Fc fusion protein (R&D Systems AVI7126-050) (from UniProt Q9H7M9 33-194)”, the binding entry is “binds weakly”.
